The experiment addresses SMN (human (endogenous in HeLa)) (UniProt Q16637). The experiment is described as follows: co-IP; SMN complex precipitated from cell lysate (1xPBS, 0.01% NP-40, 2.5 mM MgCl2) with anti-SMN antibody 7B10 covalently coupled to ProteinG-Sepharose, 3 h at 4 °C; beads analysed by SDS-PAGE with Coomassie staining or western blotting; cells mock treated or treated with dTAG13 (0.5 uM, 72 h) to degrade Gemin3.

Sequences of proteins named here, by UniProt entry; tags and fusion partners are left off. A change or cut given only in a name is not applied to a line headed by its entry.
UniProt Q16637: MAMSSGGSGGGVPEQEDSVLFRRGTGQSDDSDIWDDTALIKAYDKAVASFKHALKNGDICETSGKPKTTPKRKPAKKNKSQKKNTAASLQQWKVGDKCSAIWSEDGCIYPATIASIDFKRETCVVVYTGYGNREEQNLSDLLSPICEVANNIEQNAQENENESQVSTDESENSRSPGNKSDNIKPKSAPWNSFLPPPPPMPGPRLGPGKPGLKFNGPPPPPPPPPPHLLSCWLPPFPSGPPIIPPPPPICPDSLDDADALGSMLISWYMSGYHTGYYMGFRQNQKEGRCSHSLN
UniProt Q9UHI6: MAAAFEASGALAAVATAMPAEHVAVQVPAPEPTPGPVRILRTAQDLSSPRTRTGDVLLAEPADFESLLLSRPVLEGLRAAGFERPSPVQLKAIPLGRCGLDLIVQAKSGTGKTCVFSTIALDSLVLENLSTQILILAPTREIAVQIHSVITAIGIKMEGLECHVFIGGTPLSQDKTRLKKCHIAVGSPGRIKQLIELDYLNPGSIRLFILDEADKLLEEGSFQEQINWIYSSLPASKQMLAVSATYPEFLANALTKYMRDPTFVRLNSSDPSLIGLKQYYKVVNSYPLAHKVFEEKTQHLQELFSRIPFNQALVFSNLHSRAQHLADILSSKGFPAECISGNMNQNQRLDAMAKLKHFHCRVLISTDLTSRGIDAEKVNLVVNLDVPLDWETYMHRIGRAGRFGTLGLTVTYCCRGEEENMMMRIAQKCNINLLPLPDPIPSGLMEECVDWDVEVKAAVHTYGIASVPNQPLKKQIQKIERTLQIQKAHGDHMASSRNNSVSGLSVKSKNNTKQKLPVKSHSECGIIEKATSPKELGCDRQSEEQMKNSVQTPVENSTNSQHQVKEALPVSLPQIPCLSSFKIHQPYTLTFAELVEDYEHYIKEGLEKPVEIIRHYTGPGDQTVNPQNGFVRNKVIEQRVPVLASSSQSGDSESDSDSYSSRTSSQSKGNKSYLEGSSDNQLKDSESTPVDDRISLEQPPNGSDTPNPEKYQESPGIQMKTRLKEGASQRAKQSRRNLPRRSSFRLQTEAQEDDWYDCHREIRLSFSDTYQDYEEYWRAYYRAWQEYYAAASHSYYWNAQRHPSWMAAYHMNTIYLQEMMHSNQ
UniProt Q8TEQ6: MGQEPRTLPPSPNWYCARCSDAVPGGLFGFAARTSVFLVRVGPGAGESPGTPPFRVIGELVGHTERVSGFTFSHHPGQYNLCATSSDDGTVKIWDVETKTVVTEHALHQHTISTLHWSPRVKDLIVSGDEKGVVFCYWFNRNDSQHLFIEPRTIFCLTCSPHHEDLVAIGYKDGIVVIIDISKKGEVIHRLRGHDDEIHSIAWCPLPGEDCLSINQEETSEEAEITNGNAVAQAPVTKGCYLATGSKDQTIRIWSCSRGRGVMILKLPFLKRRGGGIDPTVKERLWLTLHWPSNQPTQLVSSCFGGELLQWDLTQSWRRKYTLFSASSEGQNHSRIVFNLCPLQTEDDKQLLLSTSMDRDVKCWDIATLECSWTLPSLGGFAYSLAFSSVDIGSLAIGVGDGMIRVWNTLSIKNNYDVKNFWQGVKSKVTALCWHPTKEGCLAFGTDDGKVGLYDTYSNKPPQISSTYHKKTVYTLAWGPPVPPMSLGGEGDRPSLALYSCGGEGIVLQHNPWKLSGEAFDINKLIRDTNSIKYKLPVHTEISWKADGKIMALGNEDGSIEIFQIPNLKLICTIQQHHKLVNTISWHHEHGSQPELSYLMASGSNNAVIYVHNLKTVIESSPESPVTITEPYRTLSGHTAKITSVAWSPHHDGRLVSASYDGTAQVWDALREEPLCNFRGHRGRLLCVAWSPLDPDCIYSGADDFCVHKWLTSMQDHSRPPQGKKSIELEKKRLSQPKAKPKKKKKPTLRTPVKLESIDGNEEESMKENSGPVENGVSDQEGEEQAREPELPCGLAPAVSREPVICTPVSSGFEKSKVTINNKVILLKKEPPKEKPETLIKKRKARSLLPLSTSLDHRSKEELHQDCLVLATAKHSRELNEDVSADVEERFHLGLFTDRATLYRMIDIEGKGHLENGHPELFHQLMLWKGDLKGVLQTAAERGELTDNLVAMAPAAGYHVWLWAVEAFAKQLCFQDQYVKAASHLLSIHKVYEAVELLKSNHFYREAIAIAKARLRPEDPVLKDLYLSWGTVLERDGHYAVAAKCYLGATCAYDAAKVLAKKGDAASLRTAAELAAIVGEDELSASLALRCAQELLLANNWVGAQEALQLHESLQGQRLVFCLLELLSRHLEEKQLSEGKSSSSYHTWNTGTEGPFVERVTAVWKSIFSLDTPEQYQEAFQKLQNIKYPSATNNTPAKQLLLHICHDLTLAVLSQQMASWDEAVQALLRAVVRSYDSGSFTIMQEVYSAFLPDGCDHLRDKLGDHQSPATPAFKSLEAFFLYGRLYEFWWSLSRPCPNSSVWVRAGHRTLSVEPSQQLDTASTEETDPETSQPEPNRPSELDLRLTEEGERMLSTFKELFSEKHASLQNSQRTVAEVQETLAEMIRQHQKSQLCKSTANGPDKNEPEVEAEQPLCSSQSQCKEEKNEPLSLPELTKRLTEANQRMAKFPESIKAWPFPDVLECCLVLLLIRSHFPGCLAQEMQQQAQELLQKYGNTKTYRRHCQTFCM

No constants are given. Whether binding was seen depends on the method and setting. Binding seen in cells or lysates may run through a third protein. Some entries that bind do so weakly or less than the wild type.

Consider “Gemin3-GFP-FKBP12^F36V protein (from UniProt Q9UHI6 1-824)”, for which the binding result is “binds”. The value for Gemin5 (from UniProt Q8TEQ6 1-1508) was “binds”.

For the origin of these results see paper PMC10584915.
